Source: publication PMC3245275
Substitutions are numbered along the chain they refer to. Names may count otherwise. Results are given in words; binding and its absence hold for the method and conditions named. In cells and extracts the contact can be indirect. Some binding calls cover weakened binding; strength is not graded here. Tags and fused reporters may be left off the sequences shown.

Experiments:
[1] = target: T1, MYC-TAB1 (TAK1-binding protein 1, wild type) (human) (UniProt Q15750); experiment: co-IP; lysates of HEK293IL-1R cells co-transfected with HA-TAK1 or HA-TAK1 K63W plus MYC-TAB1; MYC (9E10) antibodies on protein G Sepharose, 2–6 h, 4°C; beads washed twice with cell lysis buffer plus 0.5 M NaCl; immunoblot of immunoprecipitates (Fig. 2C)
T1 sequence: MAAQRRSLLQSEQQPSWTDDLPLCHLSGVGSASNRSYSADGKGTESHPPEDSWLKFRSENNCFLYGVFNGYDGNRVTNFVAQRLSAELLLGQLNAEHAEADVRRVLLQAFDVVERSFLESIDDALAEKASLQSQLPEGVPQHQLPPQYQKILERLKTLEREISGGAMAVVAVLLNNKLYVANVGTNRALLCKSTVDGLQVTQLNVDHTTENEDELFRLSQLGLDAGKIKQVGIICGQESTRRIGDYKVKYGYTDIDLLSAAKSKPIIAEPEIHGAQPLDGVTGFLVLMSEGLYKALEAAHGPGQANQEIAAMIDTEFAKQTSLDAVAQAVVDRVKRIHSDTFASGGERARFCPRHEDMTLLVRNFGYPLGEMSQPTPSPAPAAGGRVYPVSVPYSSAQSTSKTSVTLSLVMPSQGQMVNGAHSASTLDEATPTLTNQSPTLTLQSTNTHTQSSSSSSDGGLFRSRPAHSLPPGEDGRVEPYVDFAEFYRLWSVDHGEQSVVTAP

GFP-TAK1 = target: T2, GFP-TAK1 (UniProt O43318); experiment: co-IP; lysates of HEK293IL-1R cells co-transfected with GFP-TAK1 and TAB1 vectors; GFP (clones 7.1 and 13.1) antibodies on protein G Sepharose, 2–6 h, 4°C; beads washed twice with cell lysis buffer plus 0.5 M NaCl; immunoblot of immunoprecipitates (Fig. S3A)
T2 sequence: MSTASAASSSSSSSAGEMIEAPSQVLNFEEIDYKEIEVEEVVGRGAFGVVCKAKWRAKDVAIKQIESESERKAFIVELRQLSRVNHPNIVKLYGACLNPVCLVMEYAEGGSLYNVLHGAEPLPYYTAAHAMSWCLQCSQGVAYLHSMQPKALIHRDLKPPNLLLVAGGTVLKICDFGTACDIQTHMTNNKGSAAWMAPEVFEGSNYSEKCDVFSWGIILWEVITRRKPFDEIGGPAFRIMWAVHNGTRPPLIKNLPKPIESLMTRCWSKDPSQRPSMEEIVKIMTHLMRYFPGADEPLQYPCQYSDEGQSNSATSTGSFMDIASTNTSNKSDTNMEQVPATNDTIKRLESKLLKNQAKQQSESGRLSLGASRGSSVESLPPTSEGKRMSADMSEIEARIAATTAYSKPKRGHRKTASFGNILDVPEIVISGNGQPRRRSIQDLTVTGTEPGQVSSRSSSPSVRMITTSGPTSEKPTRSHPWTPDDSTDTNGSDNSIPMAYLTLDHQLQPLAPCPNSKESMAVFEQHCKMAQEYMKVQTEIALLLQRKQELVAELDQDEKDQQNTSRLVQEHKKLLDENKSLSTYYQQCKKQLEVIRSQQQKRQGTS

B1: HA-TAK1 (TGFβ-activated protein kinase 1, wild type) (enzyme, UniProt O43318 1-606)
chain: T2 sequence
**Q.** B1 was tested. Which binding [1] did it give?
**A.** binds

B2: HA-TAK1 K63W (inactive TAK1) (enzyme, UniProt O43318 1-606)
chain: T2 sequence with K63W
**Q.** With B2 as the binder, how does the binding [1] read?
**A.** binds

B3: TAB1 wild type (co-transfected with GFP-TAK1, Fig. S3A) (protein, UniProt Q15750 1-504)
chain: T1 sequence
**Q.** How did the binding (GFP-TAK1) turn out when B3 was run?
**A.** binds

B4: TAB1ΔS (TAB1 lacking aa 452–457; co-transfected with GFP-TAK1, Fig. S3A) (protein, UniProt Q15750)
chain: MAAQRRSLLQSEQQPSWTDDLPLCHLSGVGSASNRSYSADGKGTESHPPEDSWLKFRSENNCFLYGVFNGYDGNRVTNFVAQRLSAELLLGQLNAEHAEADVRRVLLQAFDVVERSFLESIDDALAEKASLQSQLPEGVPQHQLPPQYQKILERLKTLEREISGGAMAVVAVLLNNKLYVANVGTNRALLCKSTVDGLQVTQLNVDHTTENEDELFRLSQLGLDAGKIKQVGIICGQESTRRIGDYKVKYGYTDIDLLSAAKSKPIIAEPEIHGAQPLDGVTGFLVLMSEGLYKALEAAHGPGQANQEIAAMIDTEFAKQTSLDAVAQAVVDRVKRIHSDTFASGGERARFCPRHEDMTLLVRNFGYPLGEMSQPTPSPAPAAGGRVYPVSVPYSSAQSTSKTSVTLSLVMPSQGQMVNGAHSASTLDEATPTLTNQSPTLTLQSTNTHTQDGGLFRSRPAHSLPPGEDGRVEPYVDFAEFYRLWSVDHGEQSVVTAP
**Q.** For B4, which binding (GFP-TAK1) is on record?
**A.** binds
